# Data published in PubChem BioAssay AID2685 (National Center for Advancing Translational Sciences (NCATS), 2010).
# The other results are listed elsewhere or left out. The main result of the screen is listed elsewhere. These columns were measured beside it and carry no call. The list favours compounds with an active or inconclusive main result. The note in brackets gives the kind of curve behind each potency; many fits are weak.
# Assay: qHTS Assay for Lipid Storage Modulators in Drosophila S3 Cells;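 as to cell number change: cells counted by Cell Tracker Red CMTPX staining in the red channel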
# Conditions: BODIPY lipid droplet fluorescence, 18-24 h; for cell number change: measured here: cell count max response, cells fed with added oleic acid
# How it was run: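 Drosophila S3 cells got compounds at several concentrations plus oleic acid (400 uM solution). Laser-scanning cytometry with 488 nm excitation read lipid droplets at 500-530 nm and cells at 575-640 nm. Percent activity was relative to 20 uM Triacsin C.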
# [1] = measured here: cell number channel AC50, cells fed with added oleic acid
# [2] = measured here: lipid fluorescence (Fed channel) AC50, cells fed with added oleic acid
Compound,cell number change [%],AC50 [1],AC50 [2]
Cc1nc(-c2ccc(F)cc2)c(CC(=O)Nc2cccc(S(=O)(=O)N3CCOCC3)c2)s1,30.8,"20.6 µM [rising, single point]",–
CC(=O)Nc1cccc(C(=O)N/N=C/c2ccccc2F)c1,20.4,–,"6.51 µM [rising, full curve, poor fit]"
COc1ccc(CN2CCCCCC2)cc1,–,–,"18.4 µM [falling, partial curve]"
CC(C)COc1ccc(C(=O)NNC(=O)c2ccc(=O)[nH]c2)cc1,-25.6,–,"16.4 µM [falling, single point]"
CN1CCN(C(=S)c2ccc(Cl)cc2)CC1,-4.9,–,–
CCOC(=O)/C(C(N)=NC)=C(\O)c1ccccc1,0.879,–,"3.66 µM [rising, full curve, poor fit]"
CCNC(=S)NNC(=O)c1c(Cl)c(C)nn1C,-39.8,"1.64 µM [falling, partial curve]","0.58 µM [rising, single point]"
CN(c1ccccc1)S(=O)(=O)c1cccc(NC(=O)Cc2ccc(Cl)cc2)c1,2.89,–,–
O=C(NC(=S)NCc1nc2ccccc2[nH]1)c1ccc(F)cc1,28.8,"0.291 µM [rising, full curve, poor fit]","0.103 µM [rising, full curve]"
O=C(Nc1ccc(C(=O)OC2CCCCC2)cc1)c1ccncc1,-22,–,"16.4 µM [rising, single point]"
Cc1ccc2cc(C)c(SCC(=O)Nc3cc(C)on3)nc2c1,73.1,"18.4 µM [rising, single point]","29.1 µM [falling, single point]"
CNC(=S)c1cc(C(C)(C)C)c(O)c(C(C)(C)C)c1,-27.5,–,"8.2 µM [falling, partial curve, poor fit]"
CCc1nnc(NC(=O)CSc2nc3ccccc3s2)s1,100,–,–
Fc1cccc(Cl)c1CSc1nnc(COc2cccc3cccnc23)o1,145,–,"6.51 µM [rising, single point]"
CCCCOc1c(Br)cc(/C=N/O)cc1OCC,-59.6,"8.2 µM [falling, partial curve]","11.6 µM [falling, partial curve]"
COCCNC(=S)N/N=C(\C)c1cccc([N+](=O)[O-])c1,15.7,–,"14.6 µM [rising, partial curve]"
CCN1CCN(S(=O)(=O)c2cc3c(cc2Cl)NC(=O)CO3)CC1,10.7,–,"2.31 µM [falling, full curve]"
Brc1c(CSc2nc3ccccc3o2)nc2ncccn12,-5.4,–,"6.51 µM [rising, partial curve]"
Cn1cc(-c2nc3ccccc3[nH]2)c2ccccc21,-15.7,–,"10.3 µM [falling, single point]"
O=C(CCNC(=O)c1ccc([N+](=O)[O-])cc1)NCc1ccccc1,17.3,–,–

# As entered above.
# AC50 [2], CCOC(=O)/C(C(N)=NC)=C(\O)c1ccccc1 reads 3.66 µM [rising, full curve, poor fit]
# AC50 [1], CCNC(=S)NNC(=O)c1c(Cl)c(C)nn1C reads 1.64 µM [falling, partial curve]
# AC50 [2], CCCCOc1c(Br)cc(/C=N/O)cc1OCC reads 11.6 µM [falling, partial curve]

# Later entries.

Compound,cell number change [%],AC50 [1],AC50 [2]
C/C(=N\Nc1ccccc1)c1cccc(N)c1,-27.7,–,"29.1 µM [rising, single point]"
COC(=O)[C@H]1C[C@@H](c2ccccc2)[C@H](C)C1(C)C,-19.6,–,"10.3 µM [falling, partial curve]"
CCOc1ccc(NS(=O)(=O)c2ccc(SC)cc2)cc1,-31.8,"18.4 µM [falling, single point]","23.1 µM [falling, single point]"
COc1ccc(C(=O)NCc2ccc(N3CCN(C)CC3)cc2)cc1,-16.9,–,"29.1 µM [rising, single point]"
NS(=O)(=O)c1ccc(Sc2ccc3ccccc3c2)nc1,-4.05,–,"0.58 µM [falling, single point]"
N#C/C(=C\c1ccco1)C(=O)Nc1ccc(S(N)(=O)=O)cc1,3.52,"0.164 µM [falling, partial curve, poor fit]",–
COc1ccc(C(=O)Nc2ccc3c(c2)OCCO3)cc1S(=O)(=O)N1CCOCC1,9.03,–,"0.013 µM [rising, full curve, poor fit]"
O=C(c1cc(C2CC2)nn1-c1ccccc1)N1CCN(c2ccc(O)cc2)CC1,–,"1.64 µM [rising, partial curve]",–
CCCc1nn(C)c(C(=O)Nc2ccc(C(C)(C)C)cc2)c1Cl,-47,"20.6 µM [falling, partial curve]","29.1 µM [falling, partial curve]"
Cn1c(CN2CCCC2)nc2cc(NC(=O)c3ccco3)ccc21,4.12,"0.651 µM [falling, single point]","6.51 µM [falling, single point]"
COc1ccc(N2CCN(Cc3cc4c(cc3Br)OCCO4)CC2)cc1,-19,–,"29.1 µM [falling, single point]"
Cc1c(Cl)cccc1Nc1ccccc1C(=O)O,-7.75,–,–
C=CCOC(=O)C1=C[C@H](c2ccc(C(F)(F)F)cc2)[C@@H](CCCO)[C@H](OCC)O1,-30,"29.1 µM [falling, single point]","29.1 µM [falling, single point]"
O=C(NCCCn1ccnc1)C(=O)c1c[nH]c2ccccc12,56.5,"0.00461 µM [rising, full curve, poor fit]",–
N#CC1=C(N)C(C#N)(C#N)C(c2cccnc2)C2CC(c3ccccc3)CC=C12 (stereo not given),-25.8,–,"0.206 µM [falling, full curve]"
COc1ccc(CCCCCCOCc2ccccc2)cc1,7.24,–,"2.06 µM [rising, partial curve, poor fit]"
COc1ccc(NC(=O)COc2ccccc2Cc2ccccc2)cc1S(N)(=O)=O,-10.8,–,"6.51 µM [rising, single point]"
CCn1c(C)nc2cc(C(=O)OC(C(F)(F)C(F)F)C(F)(F)C(F)F)ccc21,-57.5,"14.6 µM [falling, partial curve]","18.4 µM [falling, partial curve]"
CCOC(=O)N1CCN(C(=O)CCSc2ccc(C)cc2)CC1,-9.06,"0.731 µM [falling, single point]",–
